# From publication PMC10906075
# Target: Dynorphin A (Dyn) (UniProt P01213)
# Assay: OWLS
# Conditions: 1x PBS, almost full unbinding on rinse; thiol for surface coupling (end not stated); OWLS: 1x PBS; nanopore: PBS (~150 mM salt), 0.5-1.5 V; folded or branched DNA
sequence,measurement,value
CGACGAGGCTGGATGCATTCGCCGGATGTTCGATGTCG [phenylalanine aptamer],binding signal (ng/cm2 adsorbed mass),52

# For at least one entry, the source does not settle the construct or the ends of the probe. Whether high values mean tight binding is not given here for every scale.
